# Laboratory results taken from the supplement of paper PMC8728848.
# The list shows a part of the results.
# B1: AntigenI/IIA3VP1 (Streptococcus mutans), C9E3B4 (protein)
# chain: AANEADYQAKLTAYQTELARVQKANADAKAAYEAAVAANNAANAALTAENTAIKKRNADAKADYEAKLAKYQADLAKYQKDLADYPVKLKAYEDEQASIKAALAELEKHKNEDGNLTEPSAQNLVYDLEPNANLSLTTDGKFLKASAVDDAFSKSTSKAKYDQKILQLDDLDITNLEQSNDVASSMELYGNFGDKAGWSTTVSNNSQVKWGSVLLERGQSATATYTNLQNSYYNGKKISKIVYKYTVDPKSKFQGQKVWLGIFTDPTLGVFASAYTGQVEKNTSIFIKNEFTFYDEDGKPINFDNALLSVASLNREHNSIEMAKDYSGKFVKISGSSIGEKNGMIYATDTLNFKQGEGGSRWTMYKNSQAGSGWDSSDAPNSWYGAGAIKMSGPNNYVTVGATSATNVMPVSDMPVVPGKDNTDGKKPNIWYSLNGKIRAVNVPKVTKEKPTPPVKPTAPTKPTYETEKPLKPAPVAPNYEKEPTPPTRLEHHHHHH
# How the values were obtained:
# Experiment in all cases: glycan array binding signal (z-score within array); higher = stronger binding
# Conditions in all cases: glycan notation: IUPAC condensed, linker removed
# [1] = molecular target: Gal(b1-4)GlcNAc(b1-3)Gal(b1-4)GlcNAc(b1-6)[Gal(b1-3)]GalNAc
# Method in brief: (§1)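 The Consortium for Functional Glycomics database supplied 3228 glycan arrays, of which those lacking an available protein sequence were dropped. The binding signal, a within-array Z-score, was averaged across arrays of the same protein sequence and across linkers. Negative scores can be read as non-binding.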
# [2] = molecular target: Gal(b1-4)GlcNAc(b1-3)Gal(b1-4)[Fuc(a1-3)]GlcNAc(b1-3)Gal(b1-4)[Fuc(a1-3)]GlcNAc
# Method in brief: as §1
# [3] = molecular target: Gal(b1-4)GlcNAc(b1-3)GalNAc
# Method in brief: as §1
# [4] = molecular target: Gal(b1-4)GlcNAc(b1-3)[Fuc(a1-3)GlcNAc(b1-6)]Gal(b1-4)Glc
# Method in brief: as §1
# [5] = molecular target: Gal(b1-4)GlcNAc(b1-3)[Gal(b1-4)GlcNAc(b1-6)]Gal(b1-4)GlcNAc
# Method in brief: as §1
# [6] = molecular target: Gal(b1-4)GlcNAc(b1-3)[GlcNAc(b1-6)]Gal(b1-4)GlcNAc
# Method in brief: as §1
# [7] = molecular target: Gal(b1-4)GlcNAc(b1-6)Gal(b1-4)GlcNAc
# Method in brief: as §1
# [8] = molecular target: Gal(b1-4)GlcNAc(b1-6)GalNAc
# Method in brief: as §1
# [9] = molecular target: Gal(b1-4)GlcNAc(b1-6)[Gal(b1-3)]GalNAc
# Method in brief: as §1
# [10] = molecular target: Gal(b1-4)GlcNAc(b1-6)[Gal(b1-4)GlcNAc(b1-3)]GalNAc
# Method in brief: as §1
# Gal(b1-4)GlcNAc6P = molecular target: Gal(b1-4)GlcNAc6P
# Method in brief: as §1
# Gal(b1-6)Gal = molecular target: Gal(b1-6)Gal
# Method in brief: as §1
# Gal3S(b1-3)GalNAc = molecular target: Gal3S(b1-3)GalNAc
# Method in brief: as §1
# Gal3S(b1-3)GlcNAc = molecular target: Gal3S(b1-3)GlcNAc
# Method in brief: as §1
# [11] = molecular target: Gal3S(b1-3)[Fuc(a1-4)]GlcNAc
# Method in brief: as §1
# Gal3S(b1-4)Glc = molecular target: Gal3S(b1-4)Glc
# Method in brief: as §1
# Gal3S(b1-4)Glc6S = molecular target: Gal3S(b1-4)Glc6S
# Method in brief: as §1
# Gal3S(b1-4)GlcNAc = molecular target: Gal3S(b1-4)GlcNAc
# Method in brief: as §1
# [12] = molecular target: Gal3S(b1-4)[Fuc(a1-3)]Glc6S
# Method in brief: as §1
# [13] = molecular target: Gal3S(b1-4)[Fuc(a1-3)]GlcNAc
# Method in brief: as §1
# [14] = molecular target: Gal3S(b1-4)[Fuc(a1-3)]GlcNAc6S
# Method in brief: as §1
# Gal3S4S(b1-4)GlcNAc = molecular target: Gal3S4S(b1-4)GlcNAc
# Method in brief: as §1
# Gal3S6S(b1-4)GlcNAc = molecular target: Gal3S6S(b1-4)GlcNAc
# Method in brief: as §1
# Gal3S6S(b1-4)GlcNAc6S = molecular target: Gal3S6S(b1-4)GlcNAc6S
# Method in brief: as §1
# Gal4S(b1-4)GlcNAc = molecular target: Gal4S(b1-4)GlcNAc
# Method in brief: as §1
# Gal4S6S(b1-4)GlcNAc = molecular target: Gal4S6S(b1-4)GlcNAc
# Method in brief: as §1
# Gal6P(b1-4)GlcNAc = molecular target: Gal6P(b1-4)GlcNAc
# Method in brief: as §1
# Gal6S(b1-3)GlcNAc = molecular target: Gal6S(b1-3)GlcNAc
# Method in brief: as §1
# Gal6S(b1-3)GlcNAc6S = molecular target: Gal6S(b1-3)GlcNAc6S
# Method in brief: as §1
# Gal6S(b1-4)Glc = molecular target: Gal6S(b1-4)Glc
# Method in brief: as §1
# Gal6S(b1-4)Glc6S = molecular target: Gal6S(b1-4)Glc6S
# Method in brief: as §1
# Gal6S(b1-4)GlcNAc = molecular target: Gal6S(b1-4)GlcNAc
# Method in brief: as §1
# Gal6S(b1-4)GlcNAc6S = molecular target: Gal6S(b1-4)GlcNAc6S
# Method in brief: as §1
# GalNAc(a1-3)Gal = molecular target: GalNAc(a1-3)Gal
# Method in brief: as §1
# GalNAc(a1-3)GalNAc = molecular target: GalNAc(a1-3)GalNAc
# Method in brief: as §1
# [15] = molecular target: GalNAc(a1-3)GalNAc(a1-3)Gal(a1-4)Gal(b1-4)GlcNAc
# Method in brief: as §1
# [16] = molecular target: GalNAc(a1-3)GalNAc(b1-3)Gal(a1-4)Gal(b1-4)Glc
# Method in brief: as §1
binder,measurement,setting,value
B1,glycan array binding signal (z-score),[1],-0.398
same,glycan array binding signal (z-score),[2],-0.717
same,glycan array binding signal (z-score),[3],-1.15
same,glycan array binding signal (z-score),[4],-0.738
same,glycan array binding signal (z-score),[5],0.6
same,glycan array binding signal (z-score),[6],0.525
same,glycan array binding signal (z-score),[7],-0.192
same,glycan array binding signal (z-score),[8],-0.203
same,glycan array binding signal (z-score),[9],0.419
same,glycan array binding signal (z-score),[10],0.429
same,glycan array binding signal (z-score),Gal(b1-4)GlcNAc6P,-0.924
same,glycan array binding signal (z-score),Gal(b1-6)Gal,-0.488
same,glycan array binding signal (z-score),Gal3S(b1-3)GalNAc,-1.05
same,glycan array binding signal (z-score),Gal3S(b1-3)GlcNAc,-0.67
same,glycan array binding signal (z-score),[11],0.515
same,glycan array binding signal (z-score),Gal3S(b1-4)Glc,0.494
same,glycan array binding signal (z-score),Gal3S(b1-4)Glc6S,-0.822
same,glycan array binding signal (z-score),Gal3S(b1-4)GlcNAc,0.444
same,glycan array binding signal (z-score),[12],3.68
same,glycan array binding signal (z-score),[13],-0.048
same,glycan array binding signal (z-score),[14],0.489
same,glycan array binding signal (z-score),Gal3S4S(b1-4)GlcNAc,-0.165
same,glycan array binding signal (z-score),Gal3S6S(b1-4)GlcNAc,0.603
same,glycan array binding signal (z-score),Gal3S6S(b1-4)GlcNAc6S,0.436
same,glycan array binding signal (z-score),Gal4S(b1-4)GlcNAc,-0.506
same,glycan array binding signal (z-score),Gal4S6S(b1-4)GlcNAc,-1.14
same,glycan array binding signal (z-score),Gal6P(b1-4)GlcNAc,-1.28
same,glycan array binding signal (z-score),Gal6S(b1-3)GlcNAc,-0.029
same,glycan array binding signal (z-score),Gal6S(b1-3)GlcNAc6S,0.363
same,glycan array binding signal (z-score),Gal6S(b1-4)Glc,-0.11
same,glycan array binding signal (z-score),Gal6S(b1-4)Glc6S,1.01
same,glycan array binding signal (z-score),Gal6S(b1-4)GlcNAc,0.782
same,glycan array binding signal (z-score),Gal6S(b1-4)GlcNAc6S,0.523
same,glycan array binding signal (z-score),GalNAc(a1-3)Gal,0.001
same,glycan array binding signal (z-score),GalNAc(a1-3)GalNAc,0.327
same,glycan array binding signal (z-score),[15],-0.516
same,glycan array binding signal (z-score),[16],-0.224

# Two entries from above, with tabs:
binder	measurement	setting	value
B1	glycan array binding signal (z-score)	Gal3S6S(b1-4)GlcNAc	0.603
same	glycan array binding signal (z-score)	Gal3S6S(b1-4)GlcNAc6S	0.436
